The supplement of paper PMC12282887
Values are raw readings; no control value is given beside them.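 For antimicrobials the highest concentration approximated the MIC. Most other compounds topped out at 500 µM, and known inducer-like compounds reached up to 1 mM. Inocula for deletion strains were tenfold smaller, and any well growing below 10% of the overall median was considered non-growing.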

Test system: Escherichia coli BW25113
Assay: growth (OD600 area under curve, 8 h) (OD600 x h); higher = more growth
Experimental: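 E. coli BW25113 reporter strains (wild type, ΔmarA, ΔsoxS, Δrob, each carrying one of 8 lux reporter plasmids) were grown in 40 µl LB in 384-well plates at 37°C, 800 rpm, with each compound at 4 two-fold concentrations, in biological duplicates. Growth is the baseline-corrected OD600 area under the curve over 8 h (0-8 h WT, 1-9 h deletion strains).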

CO/N=C(\C(=O)N[C@@H]1C(=O)N2C(C(=O)O)=C(COC(C)=O)CS[C@H]12)c1csc(N)n1 [Cefotaxime]
growth
Details	reporter plasmid: EVC	reporter plasmid: acrABp	reporter plasmid: marRABp	reporter plasmid: micFp	reporter plasmid: ompFp	reporter plasmid: robp	reporter plasmid: soxSp	reporter plasmid: tolCp
0.0012 µg/ml, genetic background: wild type	2.92	3.35	3.3149	2.99	3.17	3.4	2.957	3.14
0.0012 µg/ml, genetic background: ΔmarA	3.06	3.97	3.63	3.23	3.61	4	3.15	3.09
0.0012 µg/ml, genetic background: Δrob	3.02	3.18	3.39	2.937	2.76	2.87	2.698	3.119
0.0012 µg/ml, genetic background: ΔsoxS	3.25	3.3	3.32	2.968	3.21	3.33	3.34	2.9889
0.0024 µg/ml, genetic background: wild type	2.75	3.29	3.17	2.97	3.13	3.25	2.86	3.01
0.0024 µg/ml, genetic background: ΔmarA	2.88	3.8	3.56	3.15	3.55	3.87	2.98	3.05
0.0024 µg/ml, genetic background: Δrob	3.01	2.97	3.43	3.01	2.72	3	2.57	2.958
0.0024 µg/ml, genetic background: ΔsoxS	3.13	3.25	3.27	2.96	3.34	3.25	3.24	2.99
0.0048 µg/ml, genetic background: wild type	2.746	3.42	3.43	2.92	3.25	3.43	2.98	3
0.0048 µg/ml, genetic background: ΔmarA	2.99	3.97	3.71	3.2	3.75	4.07	3.02	3.1
0.0048 µg/ml, genetic background: Δrob	2.961	3.3	3.44	2.75	2.86	2.72	2.63	2.98
0.0048 µg/ml, genetic background: ΔsoxS	3.31	3.39	3.49	3.1	3.31	3.49	3.28	3.031
0.01 µg/ml, genetic background: wild type	2.26	2.18	2.23	2.45	2.05	2.54	2.65	2.73
0.01 µg/ml, genetic background: ΔmarA	2.85	1.7	1.38	2.81	0.758	2.6	2.88	2.78
0.01 µg/ml, genetic background: Δrob	2.729	1.12	1.89	2.38	0.473	0.561	2.475	2.709
0.01 µg/ml, genetic background: ΔsoxS	2.98	1.72	1.89	2.413	0.808	0.924	2.28	2.81

C[C@H]1c2cccc(O)c2C(=O)C2=C(O)[C@]3(O)C(=O)C(C(N)=O)=C(O)[C@@H](N(C)C)[C@@H]3[C@@H](O)[C@@H]21 [Doxycycline]
growth
Details	reporter plasmid: EVC	reporter plasmid: acrABp	reporter plasmid: marRABp	reporter plasmid: micFp	reporter plasmid: ompFp	reporter plasmid: robp	reporter plasmid: soxSp	reporter plasmid: tolCp
0.064 µg/ml, genetic background: wild type	2.88	2.8	3.05	3.02	2.65	2.89	2.93	2.9
0.064 µg/ml, genetic background: ΔmarA	2.86	4.14	3.4139	3.01	3.11	3.37	2.88	2.64
0.064 µg/ml, genetic background: Δrob	2.41	3.13	3.1	3.04	2.43	2.31	2.84	2.99
0.064 µg/ml, genetic background: ΔsoxS	2.96	2.93	2.96	2.61	2.99	3.02	2.96	2.69
0.13 µg/ml, genetic background: wild type	2.52	2.37	2.83	2.65	2.24	2.59	2.72	2.7
0.13 µg/ml, genetic background: ΔmarA	2.26	3.18	2.57	2.56	2.63	2.91	2.69	1.913
0.13 µg/ml, genetic background: Δrob	2.04	2.27	2.5	2.39	1.76	1.59	2.61	2.48
0.13 µg/ml, genetic background: ΔsoxS	2.36	2.39	2.54	2.33	2.4493	2.21	2.26	2.5
0.26 µg/ml, genetic background: wild type	2.12	1.59	2.17	2.01	1.85	2.03	2.41	2.27
0.26 µg/ml, genetic background: ΔmarA	1.1	2.11	1.52	1.78	1.94	1.69	2.34	1.04
0.26 µg/ml, genetic background: Δrob	1.11	1.28	1.55	1.45	1.04	0.781	2.16	1.64
0.26 µg/ml, genetic background: ΔsoxS	1.85	1.8	2.05	1.381	2.05	1.53	1.35	1.73
0.51 µg/ml, genetic background: wild type	0.751	-0.204	0.304	0.663	0.222	0.412	0.781	0.985
0.51 µg/ml, genetic background: ΔmarA	0.0409	-0.0341	0.0603	0.251	-0.0503	0.0961	0.237	0.156
0.51 µg/ml, genetic background: Δrob	-0.162	0.00139	0.0233	0.047	-0.0563	-0.043	0.348	0.334
0.51 µg/ml, genetic background: ΔsoxS	0.39	0.0771	0.106	0.0499	-0.000138	-0.0326	0.12	0.428

COc1ccc2cc3[n+](cc2c1OC)CCc1cc2c(cc1-3)OCO2 [Berberine]
growth
Details	reporter plasmid: EVC	reporter plasmid: acrABp	reporter plasmid: marRABp	reporter plasmid: micFp	reporter plasmid: ompFp	reporter plasmid: robp	reporter plasmid: soxSp	reporter plasmid: tolCp
21 µg/ml, genetic background: wild type	2.82	2.84	3.14	3.22	2.961	3.25	3.07	2.94
21 µg/ml, genetic background: ΔmarA	2.81	3.61	3.12	3.2	3.2	3.01	2.53	2.66
21 µg/ml, genetic background: Δrob	2.58	2.81	3	3.05	2.43	2.308	2.79	3.04
21 µg/ml, genetic background: ΔsoxS	3.01	3.11	3.05	2.77	2.84	2.87	3.14	2.96
42 µg/ml, genetic background: wild type	2.64	2.87	3.15	3.05	2.95	3.123	2.92	2.869
42 µg/ml, genetic background: ΔmarA	2.71	3.71	3.077	3.02	3.2	3.09	2.54	2.52
42 µg/ml, genetic background: Δrob	2.54	3	3.12	2.95	2.22	2.31	2.66	2.95
42 µg/ml, genetic background: ΔsoxS	3.0233	2.93	2.96	2.38	2.71	3.12	3.08	2.9
84.1 µg/ml, genetic background: wild type	2.44	2.85	3.04	2.78	2.87	3.0165	2.76	2.85
84.1 µg/ml, genetic background: ΔmarA	2.71	3.86	3.29	2.94	3.31	3.3	2.42	2.63
84.1 µg/ml, genetic background: Δrob	2.49	2.85	3.21	2.76	2.31	2.39	2.57	2.73
84.1 µg/ml, genetic background: ΔsoxS	2.81	2.76	3.05	2.45	2.63	2.96	2.84	2.51
168.2 µg/ml, genetic background: wild type	2.57	2.82	3.11	2.823	2.73	2.9	2.72	2.71
168.2 µg/ml, genetic background: ΔmarA	2.6	3.75	3.02	2.62	3.03	3.03	2.07	2.29
168.2 µg/ml, genetic background: Δrob	2.47	2.63	3.07	2.7	2.17	2.12	2.48	2.47
168.2 µg/ml, genetic background: ΔsoxS	2.62	2.75	2.87	1.72	2.35	2.84	2.79	2.535
